Part of at least one peptide drawing is inferred or uncertain, most often the ends.
Tests used:
[1] = target: T1, Human IGF-1R (Homo sapiens, UniProt P08069); assay: competitive displacement receptor-binding assay, IGF-1R; conditions: read-out: In Vitro Receptor-Binding Affinities (hormone-receptor dissociation constant), Human IGF-1R
T1 construct: the tag itself is not described

The chains behind the UniProt entries cited, without tags or fusion partners. Residues count along the entry.
UniProt P08069, 741-1367 partner limits assumed: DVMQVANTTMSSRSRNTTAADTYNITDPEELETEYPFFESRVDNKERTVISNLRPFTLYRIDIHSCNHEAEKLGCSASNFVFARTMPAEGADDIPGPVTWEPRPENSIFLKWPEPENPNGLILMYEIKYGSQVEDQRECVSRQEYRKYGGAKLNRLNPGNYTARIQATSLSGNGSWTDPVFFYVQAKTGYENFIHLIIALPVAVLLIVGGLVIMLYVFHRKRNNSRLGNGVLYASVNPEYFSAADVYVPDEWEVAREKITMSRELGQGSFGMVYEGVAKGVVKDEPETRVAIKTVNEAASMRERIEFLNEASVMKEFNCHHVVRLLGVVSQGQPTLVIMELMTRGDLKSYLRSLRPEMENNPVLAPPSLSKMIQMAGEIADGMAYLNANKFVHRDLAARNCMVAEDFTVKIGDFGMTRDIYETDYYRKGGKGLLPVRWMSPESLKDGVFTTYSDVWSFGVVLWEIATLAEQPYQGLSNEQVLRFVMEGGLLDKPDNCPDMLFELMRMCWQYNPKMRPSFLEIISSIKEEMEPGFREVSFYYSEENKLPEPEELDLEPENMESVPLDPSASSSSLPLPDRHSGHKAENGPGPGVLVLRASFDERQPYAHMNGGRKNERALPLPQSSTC
UniProt P08069, 31-736 limits assumed: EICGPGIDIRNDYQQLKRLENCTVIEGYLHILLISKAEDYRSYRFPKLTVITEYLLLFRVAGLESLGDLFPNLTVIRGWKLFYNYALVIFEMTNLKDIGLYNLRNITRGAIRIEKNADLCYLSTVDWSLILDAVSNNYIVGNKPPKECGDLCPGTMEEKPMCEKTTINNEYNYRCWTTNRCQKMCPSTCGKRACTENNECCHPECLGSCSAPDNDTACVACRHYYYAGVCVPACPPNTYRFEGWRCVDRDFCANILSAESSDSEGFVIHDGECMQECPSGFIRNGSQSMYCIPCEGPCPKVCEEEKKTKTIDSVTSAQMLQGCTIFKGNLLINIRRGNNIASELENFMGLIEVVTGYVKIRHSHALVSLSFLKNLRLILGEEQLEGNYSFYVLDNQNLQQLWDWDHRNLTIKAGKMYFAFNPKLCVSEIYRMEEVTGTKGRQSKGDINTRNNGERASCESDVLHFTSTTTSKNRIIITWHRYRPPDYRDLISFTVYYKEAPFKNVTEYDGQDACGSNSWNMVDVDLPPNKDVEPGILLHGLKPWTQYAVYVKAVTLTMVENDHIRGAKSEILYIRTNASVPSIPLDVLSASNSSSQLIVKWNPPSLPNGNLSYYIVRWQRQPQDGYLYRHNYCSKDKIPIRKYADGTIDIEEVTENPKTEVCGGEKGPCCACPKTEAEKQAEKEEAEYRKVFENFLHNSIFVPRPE

[2] = test system: male Sprague-Dawley rats rendered diabetic by streptozotocin; assay: blood glucose lowering in STZ diabetic rats (FIG. 4); format: in vivo, rat; conditions: one unit subcutaneous, formulation similar to Lantus at pH 3.5, relative to insulin glargine
[3] = thermodynamic stability by CD-monitored guanidine denaturation; format: physicochemical; conditions: 25° C.
[4] = resistance to fibrillation on gentle agitation, U-100 formulation; format: physicochemical; conditions: U-100, pH 4.0, 37 and 45° C.
[5] = test system: Sprague-Dawley rats rendered diabetic by streptozotocin; assay: potency in STZ diabetic rats, fresh and heated samples (FIGS. 5A, 5B); format: in vivo, rat

Compound	Kd [1] [nM]	biological activity (decrease in blood glucose) [2]	free energy of unfolding (ΔGu) ([3]; pH 4.0, two-state model)	increase in free energy (ΔΔGu) ([3]; relative to insulin glargine, pH 4.0)	solution appearance and Thioflavin T fluorescence [4]	duration of activity ([5]; STZ rats, subcutaneous U-100, 1 unit per rat, relative to Lantus)	retention or loss of potency on gentle agitation ([5]; samples gently agitated at 37 and 45° C. before injection in STZ rats)
CC[C@H](C)[C@@H]1NC(=O)CNC(=O)[C@H](CCCNC(=N)N)NC(=O)[C@H](CO)NC(=O)[C@H](CCCNC(=N)N)NC(=O)[C@H](CCCNC(=N)N)NC(=O)[C@H](CO)NC(=O)CNC(=O)[C@H](CCC(=O)O)NC(=O)[C@H](CCC(=O)O)NC(=O)[C@H]([C@@H](C)O)NC(=O)[C@H](CCCNC(=N)N)NC(=O)[C@@H]2CCCN2C(=O)[C@H]([C@@H](C)O)NC(=O)[C@H](Cc2ccc(O)cc2)NC(=O)[C@H](Cc2ccccc2)NC(=O)[C@H](Cc2ccccc2)NC(=O)CNC(=O)[C@H](CCCNC(=N)N)NC(=O)[C@H](CCC(=O)O)NC(=O)CNC(=O)[C@@H]2CSSC[C@@H](C(=O)NCC(=O)O)NC(=O)[C@H](Cc3ccc(O)cc3)NC(=O)[C@H](CC(N)=O)NC(=O)[C@H](CCC(=O)O)NC(=O)[C@H](CC(C)C)NC(=O)[C@H](CCC(N)=O)NC(=O)[C@H](Cc3ccc(O)cc3)NC(=O)[C@H](CC(C)C)NC(=O)[C@H](CO)NC(=O)[C@@H]3CSSC[C@H](NC(=O)[C@H](CCC(N)=O)NC(=O)[C@H](CCC(=O)O)NC(=O)[C@H](C(C)C)NC1=O)C(=O)N[C@@H](CSSC[C@H](NC(=O)[C@H](CC(C)C)NC(=O)[C@H](Cc1c[nH]cn1)NC(=O)[C@H](CCC(N)=O)NC(=O)[C@H](CC(N)=O)NC(=O)[C@@H](NC(=O)[C@@H](N)Cc1ccccc1)C(C)C)C(=O)NCC(=O)N[C@@H](CO)C(=O)N[C@@H](Cc1c[nH]cn1)C(=O)N[C@@H](CC(C)C)C(=O)N[C@@H](C(C)C)C(=O)N[C@@H](CCC(=O)O)C(=O)N[C@@H](C)C(=O)N[C@@H](CC(C)C)C(=O)N[C@@H](Cc1ccc(O)cc1)C(=O)N[C@@H](CC(C)C)C(=O)N[C@@H](C(C)C)C(=O)N2)C(=O)N[C@@H](Cc1c[nH]cn1)C(=O)N[C@@H](CO)C(=O)N[C@@H]([C@@H](C)CC)C(=O)N3 [SCI-59A]	102 ± 32	–	–	–	–	–	–
CC[C@H](C)[C@@H]1NC(=O)CNC(=O)[C@H](CCCNC(=N)N)NC(=O)[C@H](CO)NC(=O)[C@H](CCCNC(=N)N)NC(=O)[C@H](CCCNC(=N)N)NC(=O)[C@H](CO)NC(=O)CNC(=O)[C@H](CCC(=O)O)NC(=O)[C@H](CCC(=O)O)NC(=O)[C@H]([C@@H](C)O)NC(=O)[C@H](CCCNC(=N)N)NC(=O)[C@@H]2CCCN2C(=O)[C@H]([C@@H](C)O)NC(=O)[C@H](Cc2ccc(O)cc2)NC(=O)[C@H](Cc2ccccc2)NC(=O)[C@H](Cc2ccccc2)NC(=O)CNC(=O)[C@H](CCCNC(=N)N)NC(=O)[C@H](CCC(=O)O)NC(=O)CNC(=O)[C@@H]2CSSC[C@@H](C(=O)NCC(=O)O)NC(=O)[C@H](Cc3ccc(O)cc3)NC(=O)[C@H](CC(N)=O)NC(=O)[C@H](CCC(=O)O)NC(=O)[C@H](CC(C)C)NC(=O)[C@H](CCC(N)=O)NC(=O)[C@H](Cc3ccc(O)cc3)NC(=O)[C@H](CC(C)C)NC(=O)[C@H](CO)NC(=O)[C@@H]3CSSC[C@H](NC(=O)[C@H](CCC(N)=O)NC(=O)[C@H](CCC(=O)O)NC(=O)[C@H](C(C)C)NC1=O)C(=O)N[C@@H](CSSC[C@H](NC(=O)[C@H](CC(C)C)NC(=O)[C@H](Cc1c[nH]cn1)NC(=O)[C@H](CCC(N)=O)NC(=O)[C@H](CC(N)=O)NC(=O)[C@@H](NC(=O)[C@@H](N)Cc1ccccc1)C(C)C)C(=O)NCC(=O)N[C@@H](CO)C(=O)N[C@@H](Cc1c[nH]cn1)C(=O)N[C@@H](CC(C)C)C(=O)N[C@@H](C(C)C)C(=O)N[C@@H](CCC(=O)O)C(=O)N[C@@H](C)C(=O)N[C@@H](CC(C)C)C(=O)N[C@@H](Cc1ccc(O)cc1)C(=O)N[C@@H](CC(C)C)C(=O)N[C@@H](C(C)C)C(=O)N2)C(=O)N[C@@H](CCCNC(=N)N)C(=O)N[C@@H](CO)C(=O)N[C@@H]([C@@H](C)CC)C(=O)N3 [SCI-59B]	35.3 ± 7.4	retain a substantial proportion of the biological activity of insulin glargine	3.5(±0.1) kcal/mole	0.7(±0.2) kcal/mole	remained clear and without increase in fluorescence of Thioflavin T	exceeds that of Lantus®	retained full activity for several weeks

Source: US9975940B2 (CASE WESTERN RESERVE UNIVERSITY, priority 2012, dated 2018)
